# Results taken from PubChem BioAssay AID504834 (National Center for Advancing Translational Sciences (NCATS), 2011).
# Among all 320,000 compounds or so, about 22,000 (6.9%) were called active. The inconclusive results got no clear call from the source; some entries with a clear call stand among them for comparison. The call rests on the fitted dose curve; in most records, active means well fitted inhibition curve with a large enough effect; inconclusive means small, poorly fitted or top-dose-only effect, or another doubt; inactive means no such curve, though single readings can be large or run the other way. A potency beside an inconclusive call is a rough fit, not a confirmed value.
# Test: Primary qHTS for delayed death inhibitors of the malarial parasite plastid, 96 hour incubation
# Conditions: P. falciparum luciferase reporter growth; series mostly up to 28.7 µM
# Procedure, shortened: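 Plates of compound plus infected erythrocytes (2% hematocrit, 0.05% parasitemia final) incubate 96 hours, 37 C, 5% CO2. Detection reagent added; reduced luminescence from the parasites' luciferase reporter flags inhibition.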
# Potency means the concentration at half of the fitted maximal effect.
row,Compound,Potency
1,CC(=O)N1CCc2cc(S(=O)(=O)NC(Cc3ccccc3)C(=O)Nc3cc(C)ccn3)ccc21 (stereo not given),"inconclusive: 3.29 µM [inhibitor, full curve, poor fit]"
2,Cc1ccnc(NS(=O)(=O)c2cc(C(F)(F)F)ccc2Cl)c1,"inconclusive: 2.94 µM [inhibitor, full curve, poor fit]"
3,CN(C)c1nc(C#N)nc(N(C)C)n1,inactive
4,CCCCC(CC)C(=O)Nc1cc(C(=O)NCc2ccc(C)cc2)ccc1N1CCC2(CC1)CC(c1cccc(Br)c1)=NO2 (stereo not given),active: 2.08 µM
5,COc1ccc(-c2cc(=O)c3cc(F)ccc3[nH]2)cc1,"inconclusive: 18.5 µM [inhibitor, single point]"
6,Cn1nc(-c2ccc(Cl)cc2)cc1NC(=O)CSCC(=O)O,inactive
7,COc1cc(C(=O)N2CCN(C(=O)c3ccccc3)CC2)cc(OC)c1OC,"inconclusive: 8.28 µM [inhibitor, partial curve, poor fit]"
8,CCOC(=O)c1c(S(=O)(=O)NCC(=O)N2CCN(c3ccc(OC)cc3)CC2)c(C)n(C)c1C,"inconclusive: 18.5 µM [inhibitor, single point]"
9,CC(=O)c1cc2ccccc2oc1=O,inactive
10,CCCc1ncc(CN2CCC(C(=O)Nc3cccc(-c4cscn4)c3)CC2)cn1,inactive
11,COc1cc(C(=O)NC(=S)Nc2ccc(Cl)c(C(=O)O)c2)cc(OC)c1OC,"inconclusive: 0.0029 µM [inhibitor, full curve, poor fit]"
12,CCn1cc(CN2CCN(CCC(C)C)C(CCO)C2)c2ccccc21 (stereo not given),inactive
13,COc1cc(CNc2cccc(C(=O)O)c2)cc(Br)c1OCC(=O)NC(C)(C)C,active: 11.7 µM
14,Cc1cccc(N2CCC(N3CCN(C4CCCCC4)C(CCO)C3)CC2)c1C (stereo not given),inactive
15,Cc1cc(/C=C2\C(=O)NC(=O)N(Cc3ccccc3Cl)C2=O)c(C)n1-c1ccc(C(=O)O)cc1,active: 1.85 µM
16,CCc1ccc(-c2cc(C)no2)cc1S(=O)(=O)NCCc1ccccc1,"inconclusive: 5.22 µM [inhibitor, partial curve]"
17,COC(=O)C(Cc1c[nH]c2ccccc12)NC(=O)c1cc(-c2ccc(OC)c(OC)c2)oc1C (stereo not given),"inconclusive: 9.28 µM [inhibitor, partial curve]"
18,CCn1c(COc2ccccc2OC)nnc1SCC(=O)NC1CCCC1,inactive
19,CCCCC1=CC2=C(c3ccco3)C(=O)C(C)(OC(=O)c3ccc(OC)cc3)C(=O)C2=CN1c1ccc(OC)cc1 (stereo not given),"inconclusive: 18.5 µM [inhibitor, single point]"
20,FC(F)(F)c1ccc(CN2C[C@@H]3C(c4ccc(C(F)(F)F)cc4)C4(c5cccnc5)CC3(C4)[C@H]2c2ccccc2)cc1 (stereo not given in full),active: 2.08 µM
21,Cc1nn(C2CCS(=O)(=O)C2)c(Cl)c1/C=C/C(=O)OCC(N)=O (stereo not given),"inconclusive: 11.7 µM [inhibitor, single point]"
22,N=c1sccn1CC(=O)NCc1ccc(Cl)cc1Cl,"inconclusive: 18.5 µM [inhibitor, single point]"
23,COc1cccc(/C=C2\SC(=O)N(CCC(=O)NCCCn3ccnc3)C2=O)c1,inactive

row,Compound,Potency
1,CCc1nnc(NC(=O)c2ccc(N3C(=O)CCC3=O)cc2)s1,inactive
2,CC(Cc1cccs1)NC(=S)Nc1ccccc1 (stereo not given),inactive
3,COCCn1c(N)c(N(Cc2ccccc2)C(=O)c2oc3ccccc3c2C)c(=O)[nH]c1=O,"inconclusive: 8.28 µM [inhibitor, partial curve, poor fit]"
4,CC(=O)N1CCc2cc(Br)cc(S(=O)(=O)CCC(=O)Nc3c(C)n(C)n(-c4ccccc4)c3=O)c21,"inconclusive: 18.5 µM [inhibitor, single point]"
5,CC(=O)Nc1ccc(S(=O)(=O)Nc2nc3ccccc3nc2N2CCCCCC2)cc1,inactive
6,CCN(C(=O)Cc1c(C(=O)O)[nH]c2ccccc12)c1cc(OC)ccc1OC,active: 7.38 µM
7,COCCn1c(SCC(=O)Nc2ccc(NC(C)=O)cc2)nc2ccccc2c1=O,"inconclusive: 18.5 µM [inhibitor, single point]"
8,Cc1ccc2nc(C)c(C(=O)NN=C3CCCCCC3)n2c1,"inconclusive: 2.33 µM [inhibitor, partial curve, poor fit]"
9,CCOC(=O)C1(Cc2ccccc2)CCN(Cc2cn[nH]c2-c2ccccc2)CC1,inactive
10,COc1ccc(-c2nnn(CCc3nn[nH]n3)n2)cc1OC,"inconclusive: 11.7 µM [inhibitor, single point]"
11,CNc1cc(Cl)c2nonc2c1[N+](=O)[O-],"inconclusive: 16.5 µM [inhibitor, single point]"
12,CCOC(=O)CCCNC(=O)CSc1nnc(-c2ccccc2)c(-c2ccccc2)n1,"inconclusive: 1.17 µM [inhibitor, partial curve, poor fit]"
13,OC(COc1ccc(CNCCc2ccccc2F)cc1)CN1CCCCC1 (stereo not given),inactive
14,O=C(Oc1cccc([N+](=O)[O-])c1)c1cc(-c2ccccc2)nc2ccccc12,"inconclusive: 0.465 µM [inhibitor, full curve, poor fit]"
15,CN(C)CCCNc1ccc(-c2cc(Nc3cccc(Cl)c3)ncn2)cn1,active: 0.928 µM
16,O=C(c1ccc(Nc2cccc(C(F)(F)F)c2)nc1)N1CCCC1,active: 16.5 µM
17,COc1ccc(N2Cc3cccc(C(=O)N4CCOCC4)c3C2=O)cc1,"inconclusive: 0.329 µM [inhibitor, full curve, poor fit]"
18,CC(=O)Nc1ccc(S(=O)(=O)n2nc(-c3ccc(C)cc3)nc2N)cc1,active: 1.65 µM
19,CNC(=O)c1c(NC(=O)c2ccc(S(=O)(=O)N3CCCCC3C)cc2)sc2c1CCN(C)C2 (stereo not given),active: 10.4 µM
20,CCOc1ccc(Oc2c(/C=N/NC(N)=O)c(C)nn2-c2ccccc2)cc1,"inconclusive: 11.7 µM [inhibitor, partial curve, poor fit]"
21,CC(C)NC(=O)C1CCCN(S(=O)(=O)c2cccc3nonc23)C1 (stereo not given),"inconclusive: 11.7 µM [inhibitor, single point]"
22,Cc1ccc(C(=O)NC2CCN(Cc3ccccc3)CC2)cc1S(=O)(=O)N1CCOCC1,"inconclusive: 18.5 µM [inhibitor, single point]"

# Entries listed so far with a nitro group on carbon, in the order listed:
row,Compound,Potency
11,CNc1cc(Cl)c2nonc2c1[N+](=O)[O-],"inconclusive: 16.5 µM [inhibitor, single point]"
14,O=C(Oc1cccc([N+](=O)[O-])c1)c1cc(-c2ccccc2)nc2ccccc12,"inconclusive: 0.465 µM [inhibitor, full curve, poor fit]"
